From paper PMC3045441 come the findings set out here.

Results are given in words; binding and its absence hold for the method and conditions named. Some results given as binding are weak or reduced against the parent protein; the word gives no strength. Tags and fused reporters may be left off the sequences shown.

What all share (assay): two-hybrid; yeast, Matchmaker Two-Hybrid System 3 (Clontech), GAL4 pGBKT7 bait and pGADT7 prey vectors, full-length mouse proteins; some interactions also examined with an oxygen-biosensor assay of yeast growth in selective medium
Experiment [1] has as its target T1, MgcRacGAP, full-length mouse, yeast two-hybrid fusion (mouse) (UniProt Q9WVM1).
T1 sequence: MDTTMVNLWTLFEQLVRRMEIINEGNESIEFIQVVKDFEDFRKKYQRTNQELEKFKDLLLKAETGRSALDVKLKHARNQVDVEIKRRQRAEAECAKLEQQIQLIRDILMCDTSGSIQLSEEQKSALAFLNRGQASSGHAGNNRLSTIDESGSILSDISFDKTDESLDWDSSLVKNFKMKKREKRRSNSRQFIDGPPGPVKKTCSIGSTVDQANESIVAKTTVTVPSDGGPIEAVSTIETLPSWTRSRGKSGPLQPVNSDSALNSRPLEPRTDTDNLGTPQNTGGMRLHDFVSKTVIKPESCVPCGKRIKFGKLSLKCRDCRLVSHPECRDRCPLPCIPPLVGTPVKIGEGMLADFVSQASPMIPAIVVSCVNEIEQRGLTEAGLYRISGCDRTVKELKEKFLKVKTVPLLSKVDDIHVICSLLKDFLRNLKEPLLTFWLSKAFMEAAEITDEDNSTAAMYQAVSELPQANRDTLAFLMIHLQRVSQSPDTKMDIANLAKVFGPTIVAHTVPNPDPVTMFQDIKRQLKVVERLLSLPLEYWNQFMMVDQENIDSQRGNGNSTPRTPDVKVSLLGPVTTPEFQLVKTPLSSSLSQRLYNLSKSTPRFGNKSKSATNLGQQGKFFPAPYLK

Experiment [2] addresses T2, testis-expressed gene 14 (TEX14), full-length mouse, yeast two-hybrid fusion (mouse) (UniProt Q7M6U3).
T2 sequence: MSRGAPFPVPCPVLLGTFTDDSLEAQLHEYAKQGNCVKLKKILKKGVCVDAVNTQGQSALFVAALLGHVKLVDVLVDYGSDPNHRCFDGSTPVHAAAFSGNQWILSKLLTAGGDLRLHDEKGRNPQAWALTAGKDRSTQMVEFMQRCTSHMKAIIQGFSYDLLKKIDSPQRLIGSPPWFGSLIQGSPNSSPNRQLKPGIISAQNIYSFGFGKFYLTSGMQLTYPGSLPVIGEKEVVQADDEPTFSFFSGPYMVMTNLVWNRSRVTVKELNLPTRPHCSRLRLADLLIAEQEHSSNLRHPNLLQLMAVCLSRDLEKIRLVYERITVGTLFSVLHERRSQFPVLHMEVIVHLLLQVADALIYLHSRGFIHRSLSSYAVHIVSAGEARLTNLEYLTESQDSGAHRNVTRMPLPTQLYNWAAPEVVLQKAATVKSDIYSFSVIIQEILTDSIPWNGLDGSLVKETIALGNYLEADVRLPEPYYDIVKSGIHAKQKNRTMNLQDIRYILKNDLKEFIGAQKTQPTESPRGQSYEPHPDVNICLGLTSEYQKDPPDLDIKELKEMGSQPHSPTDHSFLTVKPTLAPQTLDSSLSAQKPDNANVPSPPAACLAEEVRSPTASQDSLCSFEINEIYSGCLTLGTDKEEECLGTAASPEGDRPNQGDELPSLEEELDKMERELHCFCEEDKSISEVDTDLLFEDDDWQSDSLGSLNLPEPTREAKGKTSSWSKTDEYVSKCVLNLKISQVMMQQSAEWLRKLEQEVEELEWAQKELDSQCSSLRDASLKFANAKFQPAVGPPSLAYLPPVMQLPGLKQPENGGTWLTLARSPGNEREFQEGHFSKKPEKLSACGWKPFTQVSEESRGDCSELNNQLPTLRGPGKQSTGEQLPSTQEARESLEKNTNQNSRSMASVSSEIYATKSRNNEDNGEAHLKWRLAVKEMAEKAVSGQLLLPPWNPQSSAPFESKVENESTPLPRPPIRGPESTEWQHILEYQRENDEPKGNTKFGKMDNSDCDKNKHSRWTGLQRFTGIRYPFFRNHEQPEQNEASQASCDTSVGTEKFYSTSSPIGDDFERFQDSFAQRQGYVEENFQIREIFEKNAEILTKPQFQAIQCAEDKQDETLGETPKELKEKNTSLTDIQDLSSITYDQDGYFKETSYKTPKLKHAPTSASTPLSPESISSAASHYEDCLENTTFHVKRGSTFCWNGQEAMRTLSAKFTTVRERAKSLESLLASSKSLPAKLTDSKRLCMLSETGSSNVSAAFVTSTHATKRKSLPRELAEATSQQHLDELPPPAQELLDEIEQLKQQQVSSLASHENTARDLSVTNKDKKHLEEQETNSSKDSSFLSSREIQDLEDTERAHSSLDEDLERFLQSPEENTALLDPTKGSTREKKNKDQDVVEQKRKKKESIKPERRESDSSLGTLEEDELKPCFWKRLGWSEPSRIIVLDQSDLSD

Experiment [3] deals with T3, mitotic kinesis-like protein 1 (MKLP1), full-length mouse, yeast two-hybrid fusion (mouse) (UniProt E9Q5G3).
T3 sequence: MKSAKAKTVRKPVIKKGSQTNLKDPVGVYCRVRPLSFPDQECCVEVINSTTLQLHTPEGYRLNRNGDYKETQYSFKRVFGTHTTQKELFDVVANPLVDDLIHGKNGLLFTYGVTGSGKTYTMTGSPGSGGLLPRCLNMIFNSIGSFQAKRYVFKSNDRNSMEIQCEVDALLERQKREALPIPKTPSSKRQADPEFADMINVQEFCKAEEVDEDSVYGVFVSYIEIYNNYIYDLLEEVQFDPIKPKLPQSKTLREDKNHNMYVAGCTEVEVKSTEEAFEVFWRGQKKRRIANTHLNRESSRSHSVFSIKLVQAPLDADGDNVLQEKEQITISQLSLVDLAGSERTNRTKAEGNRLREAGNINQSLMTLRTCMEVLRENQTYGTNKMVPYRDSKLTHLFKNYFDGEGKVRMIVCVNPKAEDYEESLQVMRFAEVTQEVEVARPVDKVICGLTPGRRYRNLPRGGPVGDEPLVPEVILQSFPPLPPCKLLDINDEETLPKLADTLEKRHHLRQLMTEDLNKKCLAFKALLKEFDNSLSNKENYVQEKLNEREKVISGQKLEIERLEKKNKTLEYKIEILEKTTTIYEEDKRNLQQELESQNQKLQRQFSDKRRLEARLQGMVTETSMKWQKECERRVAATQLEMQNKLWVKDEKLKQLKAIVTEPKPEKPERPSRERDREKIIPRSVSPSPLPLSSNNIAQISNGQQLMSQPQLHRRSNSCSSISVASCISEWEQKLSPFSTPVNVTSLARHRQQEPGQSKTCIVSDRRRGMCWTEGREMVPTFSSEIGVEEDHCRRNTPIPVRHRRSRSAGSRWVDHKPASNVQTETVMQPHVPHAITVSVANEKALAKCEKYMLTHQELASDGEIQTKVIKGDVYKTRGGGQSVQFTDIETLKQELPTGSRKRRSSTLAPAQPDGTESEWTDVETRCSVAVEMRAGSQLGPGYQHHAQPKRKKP

B1: RNA binding motif protein 44 (RBM44), full-length mouse, yeast two-hybrid fusion (protein, UniProt Q3V089 1-1013)
chain: MQATAALETDSDKNYPKNGGHFQNDKLYNPKKENMFFSNGCNGVILAFPDGKEDSLATEERASDKENSIVDQRDLSELSFSENQDSNRGNIFSQSSEFEDSNDYAFLNETYSIHYSESKLKDENLLHLYSGLHPEVHKRVEMIFDTLDNNSIGLGRSAEASGADCGDVQKSDVDEDSQQEYHSAELECISAHLAKTVSRSSLDVSELKTSSYDFKCGGNFEDNHGKLESGPSPSLESLNGFAQECSLQVSTSQSSDMLQEYHEPKYEKCKEQEVDLTYHKAFDGILQRSSSPLNHQKVPETQVYTKEVKSQTTESKDFYGNRIFQNKALQRPENATMFPQDRALETHLKANDAHQPSGPCALDDSVISLCGSSQYKSLPEPGFFSPVIPRVAVTDYQAEVEGSCLHHVQGSATNKACSLMKEVCLTSVPDAAACIAAVQQTLHVSSRVNASSSIVSASSITETKMVRQSQAEEWQSDKRSVACNTAWSCGQQCRDAQRAAPGSDSGRPLSTGCLKPSGNSLNENSLELRKVFDTTDRQKHCNRAFQLCEEKAVPSRCCQKTTERAIKAEMHLLDVCYQMCHRHCHHIYKLVMESRAGLNRNLQTDSAKKELGAALLSVLEDLKLRYMNLKGKVHKGIPLEELPPLSVESKLLSAFSDFVSRLMKDEACSLSGANSELDNQSLPDVDVSPGLLKTLSQMSFIPDSSQPEQGKSPMSDVCKNGDTDIGFNCLKLNDKECKTVQEASEDWFDATERLIGADFSETQDSTAECEEWQPRNPLELKNSELHGKGQGFLIHVGGLCPSVSEADLRSHFQKYQVSEISIYDSTNYRYASLAFAKNSNAKMAVKEMNGVKINGKSVTVRLVKIPGEYTPPPLSTTGNSTSMNHLEKNTNKDATSASSICRLPRAKSRQLESEQDSEFPPLDQGVKKNCNQMKSGQLLPETPFQFIPPNTLNLRSFTKIMKRLAELHPDISRDHIIEALQEVRINHKGFLNGLSINTIVKMASSFLRNSALK
For B1, the binding result is “no binding” in experiment [1], “binds” in experiment [2] and “no binding” in experiment [3].
